# Measured values reported in patent US20240209089A1.
# Protein sequences, listed by entry. Tags and fused reporters are not part of them. Residues count along the entry.
# UniProt P01732, residues 22-182: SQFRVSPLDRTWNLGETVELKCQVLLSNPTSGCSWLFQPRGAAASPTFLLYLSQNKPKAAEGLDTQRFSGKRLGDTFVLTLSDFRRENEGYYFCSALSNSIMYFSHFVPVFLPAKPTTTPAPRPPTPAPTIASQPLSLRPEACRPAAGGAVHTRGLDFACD
# Results are given in words; binding and its absence hold for the method and conditions named. Some binding calls cover weakened binding; strength is not graded here. Where a sequence is shown, tags or fusion partners need not be part of it.
# Target: CD8α-cHis fusion protein (UniProt P01732)
# Assay: BLI (ForteBio Octet), biotinylated antibody on SA sensor
binder,measurement,value
C37-cHis antibody (VHH) VHH: QLQLVESGGGLVQAGGSLRLSCAASGLTFEDYAIGWFRQAPGKEREGISCIRIYDGNTYSAESVKGRFTISSDNAKNQVYLQINTLKPEDTAVYYCAAGSYYSCSVYPDYDMDYWGKGTLVTVSS,binding,binds
